Assay results taken from article PMC8436130.
These are yes or no findings as the source states them, for the method shown. Binding seen in cells or lysates may run through a third protein. These calls come from enrichment with a bait or labelling near it, and not all partners need be listed.

Chains of the proteins cited; added tags and fusions are not shown.
UniProt Q86WV6: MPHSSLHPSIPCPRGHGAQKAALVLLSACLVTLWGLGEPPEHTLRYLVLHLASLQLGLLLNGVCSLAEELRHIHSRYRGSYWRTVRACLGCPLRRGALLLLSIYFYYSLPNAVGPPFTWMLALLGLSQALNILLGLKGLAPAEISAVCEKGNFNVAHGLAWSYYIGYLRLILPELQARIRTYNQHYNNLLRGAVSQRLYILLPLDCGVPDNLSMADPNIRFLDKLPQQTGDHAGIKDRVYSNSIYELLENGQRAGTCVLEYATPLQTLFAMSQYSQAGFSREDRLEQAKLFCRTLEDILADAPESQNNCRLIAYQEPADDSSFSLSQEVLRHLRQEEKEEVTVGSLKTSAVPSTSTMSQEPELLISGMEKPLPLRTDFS

Target: STimulator of INterferon Genes (STING) fused to GFP (UniProt Q86WV6)
Test: affinity purification with mass spectrometry; nuclear envelopes isolated from HEK293T cells expressing STING-GFP, reversibly cross-linked with ortho-phenanthroline copper, resuspended in RIPA and sonicated, immunoprecipitated with GFP antibodies on Protein A-sepharose, released with 50 mM DTT, tandem mass spectrometry; mock-transfected cells as control

binding | Binder
binds | RSF1 (protein, UniProt Q96T23 1-1441) MATAAAAAAVMAPPGCPGSCPNFAVVCSFLERYGPLLDLPELPFPELERVLQAPPPDVGNGEVPKELVELHLKLMRKIGKSVTADRWEKYLIKICQEFNSTWAWEMEKKGYLEMSVECKLALLKYLCECQFDDNLKFKNIINEEDADTMRLQPIGRDKDGLMYWYQLDQDHNVRMYIEEQDDQDGSSWKCIVRNRNELAETLALLKAQIDPVLLKNSSQQDNSSRESPSLEDEETKKEEETPKQEEQKESEKMKSEEQPMDLENRSTANVLEETTVKKEKEDEKELVKLPVIVKLEKPLPENEEKKIIKEESDSFKENVKPIKVEVKECRADPKDTKSSMEKPVAQEPERIEFGGNIKSSHEITEKSTEETEKLKNDQQAKIPLKKREIKLSDDFDSPVKGPLCKSVTPTKEFLKDEIKQEEETCKRISTITALGHEGKQLVNGEVSDERVAPNFKTEPIETKFYETKEESYSPSKDRNIITEGNGTESLNSVITSMKTGELEKETAPLRKDADSSISVLEIHSQKAQIEEPDPPEMETSLDSSEMAKDLSSKTALSSTESCTMKGEEKSPKTKKDKRPPILECLEKLEKSKKTFLDKDAQRLSPIPEEVPKSTLESEKPGSPEAAETSPPSNIIDHCEKLASEKEVVECQSTSTVGGQSVKKVDLETLKEDSEFTKVEMDNLDNAQTSGIEEPSETKGSMQKSKFKYKLVPEEETTASENTEITSERQKEGIKLTIRISSRKKKPDSPPKVLEPENKQEKTEKEEEKTNVGRTLRRSPRISRPTAKVAEIRDQKADKKRGEGEDEVEEESTALQKTDKKEILKKSEKDTNSKVSKVKPKGKVRWTGSRTRGRWKYSSNDESEGSGSEKSSAASEEEEEKESEEAILADDDEPCKKCGLPNHPELILLCDSCDSGYHTACLRPPLMIIPDGEWFCPPCQHKLLCEKLEEQLQDLDVALKKKERAERRKERLVYVGISIENIIPPQEPDFSEDQEEKKKDSKKSKANLLERRSTRTRKCISYRFDEFDEAIDEAIEDDIKEADGGGVGRGKDISTITGHRGKDISTILDEERKENKRPQRAAAARRKKRRRLNDLDSDSNLDEEESEDEFKISDGSQDEFVVSDENPDESEEDPPSNDDSDTDFCSRRLRRHPSRPMRQSRRLRRKTPKKKYSDDDEEEESEENSRDSESDFSDDFSDDFVETRRRRSRRNQKRQINYKEDSESDGSQKSLRRGKEIRRVHKRRLSSSESEESYLSKNSEDDELAKESKRSVRKRGRSTDEYSEADEEEEEEEGKPSRKRLHRIETDEEESCDNAHGDANQPARDSQPRVLPSEQESTKKPYRIESDEEEDFENVGKVGSPLDYSLVDLPSTNGQSPGKAIENLIGKPTEKSQTPKDNSTASASLASNGTSGGQEAGAPEEEEDELLRVTDLVDYVCNSEQL
binds | RRP1B (protein, UniProt Q14684 1-758) MAPAMQPAEIQFAQRLASSEKGIRDRAVKKLRQYISVKTQRETGGFSQEELLKIWKGLFYCMWVQDEPLLQEELANTIAQLVHAVNNSAAQHLFIQTFWQTMNREWKGIDRLRLDKYYMLIRLVLRQSFEVLKRNGWEESRIKVFLDVLMKEVLCPESQSPNGVRFHFIDIYLDELSKVGGKELLADQNLKFIDPFCKIAAKTKDHTLVQTIARGVFEAIVDQSPFVPEETMEEQKTKVGDGDLSAEEIPENEVSLRRAVSKKKTALGKNHSRKDGLSDERGRDDCGTFEDTGPLLQFDYKAVADRLLEMTSRKNTPHFNRKRLSKLIKKFQDLSEGSSISQLSFAEDISADEDDQILSQGKHKKKGNKLLEKTNLEKEKGSRVFCVEEEDSESSLQKRRRKKKKKHHLQPENPGPGGAAPSLEQNRGREPEASGLKALKARVAEPGAEATSSTGEESGSEHPPAVPMHNKRKRPRKKSPRAHREMLESAVLPPEDMSQSGPSGSHPQGPRGSPTGGAQLLKRKRKLGVVPVNGSGLSTPAWPPLQQEGPPTGPAEGANSHTTLPQRRRLQKKKAGPGSLELCGLPSQKTASLKKRKKMRVMSNLVEHNGVLESEAGQPQALGSSGTCSSLKKQKLRAESDFVKFDTPFLPKPLFFRRAKSSTATHPPGPAVQLNKTPSSSKKVTFGLNRNMTAEFKKTDKSILVSPTGPSRVAFDPEQKPLHGVLKTPTSSPASSPLVAKKPLTTTPRRRPRAMDFF
binds | TMPOα (protein, UniProt P42166 1-694) MPEFLEDPSVLTKDKLKSELVANNVTLPAGEQRKDVYVQLYLQHLTARNRPPLPAGTNSKGPPDFSSDEEREPTPVLGSGAAAAGRSRAAVGRKATKKTDKPRQEDKDDLDVTELTNEDLLDQLVKYGVNPGPIVGTTRKLYEKKLLKLREQGTESRSSTPLPTISSSAENTRQNGSNDSDRYSDNEEGKKKEHKKVKSTRDIVPFSELGTTPSGGGFFQGISFPEISTRPPLGSTELQAAKKVHTSKGDLPREPLVATNLPGRGQLQKLASERNLFISCKSSHDRCLEKSSSSSSQPEHSAMLVSTAASPSLIKETTTGYYKDIVENICGREKSGIQPLCPERSHISDQSPLSSKRKALEESESSQLISPPLAQAIRDYVNSLLVQGGVGSLPGTSNSMPPLDVENIQKRIDQSKFQETEFLSPPRKVPRLSEKSVEERDSGSFVAFQNIPGSELMSSFAKTVVSHSLTTLGLEVAKQSQHDKIDASELSFPFHESILKVIEEEWQQVDRQLPSLACKYPVSSREATQILSVPKVDDEILGFISEATPLGGIQAASTESCNQQLDLALCRAYEAAASALQIATHTAFVAKAMQADISQAAQILSSDPSRTHQALGILSKTYDAASYICEAAFDEVKMAAHTMGNATVGRRYLWLKDCKINLASKNKLASTPFKGGTLFGGEVCKVIKKRGNKH
binds | TMPOβ (protein, UniProt P42167 1-454) MPEFLEDPSVLTKDKLKSELVANNVTLPAGEQRKDVYVQLYLQHLTARNRPPLPAGTNSKGPPDFSSDEEREPTPVLGSGAAAAGRSRAAVGRKATKKTDKPRQEDKDDLDVTELTNEDLLDQLVKYGVNPGPIVGTTRKLYEKKLLKLREQGTESRSSTPLPTISSSAENTRQNGSNDSDRYSDNEEDSKIELKLEKREPLKGRAKTPVTLKQRRVEHNQSYSQAGITETEWTSGSSKGGPLQALTRESTRGSRRTPRKRVETSEHFRIDGPVISESTPIAETIMASSNESLVVNRVTGNFKHASPILPITEFSDIPRRAPKKPLTRAEVGEKTEERRVERDILKEMFPYEASTPTGISASCRRPIKGAAGRPLELSDFRMEESFSSKYVPKYVPLADVKSEKTKKGRSIPVWIKILLFVVVAVFLFLVYQAMETNQVNPFSNFLHVDPRKSN
binds | EBNA1BP2 (protein, UniProt Q99848 1-306) MDTPPLSDSESESDESLVTDRELQDAFSRGLLKPGLNVVLEGPKKAVNDVNGLKQCLAEFKRDLEWVERLDVTLGPVPEIGGSEAPAPQNKDQKAVDPEDDFQREMSFYRQAQAAVLAVLPRLHQLKVPTKRPTDYFAEMAKSDLQMQKIRQKLQTKQAAMERSEKAKQLRALRKYGKKVQTEVLQKRQQEKAHMMNAIKKYQKGFSDKLDFLEGDQKPLAQRKKAGAKGQQMRKGPSAKRRYKNQKFGFGGKKKGSKWNTRESYDDVSSFRAKTAHGRGLKRPGKKGSNKRPGKRTREKMKNRTH
binds | RBM28 (protein, UniProt Q9NW13 1-759) MAGLTLFVGRLPPSARSEQLEELFSQVGPVKQCFVVTEKGSKACRGFGYVTFSMLEDVQRALKEITTFEGCKINVTVAKKKLRNKTKEKGKNENSECPKKEPKAKKAKVADKKARLIIRNLSFKCSEDDLKTVFAQFGAVLEVNIPRKPDGKMRGFGFVQFKNLLEAGKALKGMNMKEIKGRTVAVDWAVAKDKYKDTQSVSAIGEEKSHESKHQESVKKKGREEEDMEEEENDDDDDDDDEEDGVFDDEDEEEENIESKVTKPVQIQKRAVKRPAPAKSSDHSEEDSDLEESDSIDDGEELAQSDTSTEEQEDKAVQVSNKKKRKLPSDVNEGKTVFIRNLSFDSEEEELGELLQQFGELKYVRIVLHPDTEHSKGCAFAQFMTQEAAQKCLLAASPENEAGGLKLDGRQLKVDLAVTRDEAAKLQTTKVKKPTGTRNLYLAREGLIRAGTKAAEGVSAADMAKRERFELLKHQKLKDQNIFVSRTRLCLHNLPKAVDDKQLRKLLLSATSGEKGVRIKECRVMRDLKGVHGNMKGQSLGYAFAEFQEHEHALKALRLINNNPEIFGPLKRPIVEFSLEDRRKLKMKELRIQRSLQKMRSKPATGEPQKGQPEPAKDQQQKAAQHHTEEQSKVPPEQKRKAGSTSWTGFQTKAEVEQVELPDGKKRRKVLALPSHRGPKIRLRDKGKVKPVHPKKPKPQINQWKQEKQQLSSEQVSRKKAKGNKTETRFNQLVEQYKQKLLGPSKGAPLAKRSKWFDS
